PubChem BioAssay AID504764 – Drosophila RNAi Screening Center | 2011
Test: 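Genome-wide screen for regulators of Notch-driven gene expression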 (primary screen). Cells: Drosophila Kc167 cells. Reagents: long dsRNA against Drosophila genes. Timing: about 5 days (4 days dsRNA, then 24 h after transfection). Treatment: transfection of constitutively active membrane-tethered Notch lacking the extracellular domain, read 24 h later. Measured: 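Firefly luciferase from an E(spl)m3 reporter with active Notch, plus control-promoter and uninduced reporter wells for normalisation; unnormalised counts, duplicate wells a and b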. Direction: induced reporter light, run 1, well a and induced reporter light, run 1, well b: higher = more light from the Notch target reporter with active Notch; control promoter light, run 1, well a and control promoter light, run 1, well b: higher = more light from the viral control promoter (cell number, transfection, viability); uninduced reporter light, run 1, well a: higher = more light from the Notch target reporter without active Notch. Rule for the call: 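Wells with low control signal or poorly matching duplicates excluded; duplicates averaged; per source plate, z beyond ±2 for induced/control log2 ratio or beyond ±1.8 for induced/uninduced marks a hit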. Meaning of the calls: active = modifier hit (raised or lowered Notch signal); inactive = not a hit.
The screen tested about 22,000 reagents; this is an unselected part of those that have a named target and a result. Of all reagents, 403 (1.9%) were called active. 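Unnormalised raw counts per well; ratio z-scores behind the hit calls and whether each hit raises or lowers signal are not deposited.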 A plus sign joins genes that one reagent is predicted to hit. Not stated in the record: the amount of reagent.

no.	target	DRSC id	induced reporter light, run 1, well a	induced reporter light, run 1, well b	control promoter light, run 1, well a	control promoter light, run 1, well b	uninduced reporter light, run 1, well a	Call
1	Sumo	DRSC03611	12330	7570	13638	17040	815	inactive
2	CR11386 + CR33222	DRSC17781	1.16e5	1.49e5	2.53e5	2.28e5	9275	inactive
3	CG17732	DRSC10283	1.38e5	1.43e5	93110	1.14e5	6930	inactive
4	CG32773 (retired record)	DRSC17330	66845	62645	67335	84990	4738	inactive
5	CG34195	DRSC06909	1.07e5	90995	88435	1.38e5	5920	inactive
6	xmas-1 (retired record)	DRSC20386	72435	72760	78355	82925	10510	inactive
7	CG33309	DRSC01421	1.32e5	1.30e5	1.06e5	89300	10520	inactive
8	EloB	DRSC16663	1.90e5	1.83e5	2.12e5	2.17e5	11710	inactive
9	CG17109	DRSC15172	1.69e5	1.74e5	2.08e5	1.82e5	14755	inactive
10	CG11825	DRSC06090	1.41e5	1.19e5	1.74e5	1.65e5	12155	inactive
11	mahj	DRSC04053	1.49e5	1.33e5	1.14e5	99620	9105	inactive
12	l(3)80Fj	DRSC20986	1.89e5	1.62e5	3.56e5	2.61e5	17180	inactive
13	l(3)80Fj	DRSC20989	75925	1.08e5	89655	1.02e5	10065	inactive
14	CG17991	DRSC15294	79235	87095	1.12e5	1.07e5	8665	inactive
15	Pdp	DRSC17825	1.91e5	1.38e5	2.40e5	2.22e5	12380	inactive
16	endos	DRSC10658	1.46e5	1.37e5	1.07e5	1.20e5	11245	inactive
17	CG6149	DRSC10593	1.89e5	1.25e5	2.30e5	1.99e5	8500	inactive
18	CG31715	DRSC21607						inactive
19	CG7739	DRSC10910	1.96e5	2.10e5	2.50e5	2.21e5	8385	inactive
20	CG31465	DRSC16090	2.08e5	1.82e5	1.98e5	2.40e5	16165	inactive
21	CR42532	DRSC06713	1.20e5	1.24e5	1.62e5	1.36e5	10275	inactive
22	CG15753 (retired record)	DRSC19718	4140	3785	7470	7330	1790	inactive
23	mRpL3	DRSC20100	32125	29035	26220	25905	3110	inactive
24	sced	DRSC04990	1.87e5	2.14e5	1.57e5	1.89e5	13638	inactive
25	Irk1	DRSC16106	1.12e5	1.12e5	1.49e5	1.40e5	10832	inactive
26	CG5087	DRSC10479	2.00e5	2.59e5	3.02e5	2.46e5	11635	inactive
27	su(sable)	DRSC18839	79365	83315	1.87e5	1.81e5	6985	inactive
28	Polr1D + DCTN6-p27	DRSC02094	50210	47515	39075	30345	3070	inactive
29	Hou	DRSC20001	1.01e5	84345	82445	54415	9945	inactive
30	CG31068	DRSC13820	1.66e5	1.92e5	2.01e5	2.32e5	15200	inactive
31	CG14177 (retired record)	DRSC10176	1.75e5	1.24e5	2.36e5	2.15e5	8850	inactive
32	rtp	DRSC12132	1.46e5	1.41e5	96460	78175	9275	inactive
33	Rpn12	DRSC11275	1.11e5	1.04e5	1.34e5	90850	4435	inactive
34	Oseg4	DRSC08548	1.16e5	1.35e5	2.86e5	2.59e5	10560	inactive
35	Cpr47Ef	DRSC06336	1.45e5	1.57e5	2.03e5	2.27e5	13615	inactive
36	mute	DRSC06562	60565	78545	1.05e5	1.21e5	7495	inactive
37	ac	DRSC18734	28090	26880	41280	36305	6535	inactive
38	CG12540	DRSC19471	1.30e5	1.13e5	93470	99605	16000	inactive
39	CG6984	DRSC07013	51935	86390	1.42e5	1.83e5	8442	inactive
40	Syx8	DRSC10402	1.97e5	1.57e5	1.96e5	1.70e5	11578	inactive
41	Syx8	DRSC22498						inactive
42	Pex5	DRSC18552	99015	1.18e5	1.87e5	2.04e5	9160	inactive
43	MED24	DRSC10944	1.82e5	1.60e5	2.17e5	1.70e5	9760	inactive
44	CG13040	DRSC09921	2.30e5	2.18e5	2.84e5	3.30e5	7325	inactive
45	CG10384	DRSC03933	70015	89580	68545	70545	8350	inactive
46	CG10384	DRSC04067	1.13e5	1.36e5	1.03e5	96635	10230	inactive
47	tomboy40	DRSC04918	2.10e5	2.04e5	1.90e5	1.86e5	16500	inactive
48	CG32846	DRSC08012	1.74e5	1.88e5	1.96e5	1.97e5	13920	inactive
49	CG14070	DRSC02373	1.07e5	1.28e5	68615	79095	16385	inactive
50	ash1	DRSC11325	63795	74530	43495	49125	6955	inactive

No new results follow: an excerpt of the list.
no.	target	DRSC id	induced reporter light, run 1, well a	induced reporter light, run 1, well b	control promoter light, run 1, well a	control promoter light, run 1, well b	uninduced reporter light, run 1, well a	Call
26	CG5087	DRSC10479	2.00e5	2.59e5	3.02e5	2.46e5	11635	inactive
27	su(sable)	DRSC18839	79365	83315	1.87e5	1.81e5	6985	inactive
28	Polr1D + DCTN6-p27	DRSC02094	50210	47515	39075	30345	3070	inactive
29	Hou	DRSC20001	1.01e5	84345	82445	54415	9945	inactive
